Source: doi:10.1101/2025.10.24.684426 (bioRxiv, 2025)
No constants are given. Whether binding was seen depends on the method and setting. Where a sequence is shown, tags or fusion partners need not be part of it.

Molecular target: T1, EhCaBP1 (calcium binding protein 1), recombinant (E. histolytica) (UniProt P38505)
T1 sequence: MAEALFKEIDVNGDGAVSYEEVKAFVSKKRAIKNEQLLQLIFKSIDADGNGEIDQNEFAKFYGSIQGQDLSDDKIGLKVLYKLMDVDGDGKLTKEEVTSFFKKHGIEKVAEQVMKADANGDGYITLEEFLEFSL
Experiment: BLI

binding: no binding (tested: 50µM to 550 µM)
Binder: ILSKLHHPFLVNLYYSFQ [EhPHDK Peptide 1 (surface of the kinase core)]
